No constants are given. Whether binding was seen depends on the method and setting. In cells and extracts the contact can be indirect. Some entries that bind do so weakly or less than the wild type. Tags and fused reporters may be left off the sequences shown.
Assays:
FLAG-PGK1 [1] = molecular target: T1, FLAG-PGK1 (UniProt P00558); assay: co-IP; PGK1-overexpressing cells under normal (21%) or lower (1%) oxygen for 24 h, or hypoxia 24 h then normoxia 6 h; precipitation of PGK1, Western blotting for PRAS40 and Beclin1
T1 sequence: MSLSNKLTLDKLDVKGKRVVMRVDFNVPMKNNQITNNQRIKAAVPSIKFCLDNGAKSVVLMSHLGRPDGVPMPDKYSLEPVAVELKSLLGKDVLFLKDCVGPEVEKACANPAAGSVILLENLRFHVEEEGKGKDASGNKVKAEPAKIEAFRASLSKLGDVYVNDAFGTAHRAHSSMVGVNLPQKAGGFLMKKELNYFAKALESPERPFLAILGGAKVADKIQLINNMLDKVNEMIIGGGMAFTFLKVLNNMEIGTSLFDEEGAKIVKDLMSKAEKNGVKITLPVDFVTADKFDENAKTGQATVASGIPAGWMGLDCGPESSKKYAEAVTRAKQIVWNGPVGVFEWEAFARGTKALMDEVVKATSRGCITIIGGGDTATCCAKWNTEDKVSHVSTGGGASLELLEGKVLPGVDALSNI

Protein sequences, listed by entry. Tags and fused reporters are not part of them.
UniProt Q14457: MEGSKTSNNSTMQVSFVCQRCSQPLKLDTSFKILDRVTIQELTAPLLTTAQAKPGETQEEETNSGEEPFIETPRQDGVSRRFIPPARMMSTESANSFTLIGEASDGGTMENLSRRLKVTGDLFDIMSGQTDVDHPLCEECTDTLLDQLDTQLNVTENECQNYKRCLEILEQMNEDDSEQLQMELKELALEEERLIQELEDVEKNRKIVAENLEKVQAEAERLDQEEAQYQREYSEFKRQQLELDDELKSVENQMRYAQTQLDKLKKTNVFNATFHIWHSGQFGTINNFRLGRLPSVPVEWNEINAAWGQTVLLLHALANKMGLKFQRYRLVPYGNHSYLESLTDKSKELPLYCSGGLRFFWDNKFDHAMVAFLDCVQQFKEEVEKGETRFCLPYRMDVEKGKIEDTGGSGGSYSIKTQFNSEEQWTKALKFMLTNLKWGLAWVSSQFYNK

FLAG-PGK1 [2] = molecular target: T1, FLAG-PGK1; assay: co-IP; FLAG-PGK1 and Myc-PRAS40 co-transfected into HEK293T cells; anti-FLAG precipitation, 4 °C overnight, Western blotting

binding (FLAG-PGK1 [1])	binding (FLAG-PGK1 [2])	Substance
binds	–	Beclin1, endogenous (from UniProt Q14457 1-450)
–	binds	Myc-PRAS40 (from UniProt Q96B36 1-256)
binds	–	PRAS40, endogenous (from UniProt Q96B36 1-256)
